Test results reported in article PMC10323252.

Amino acid sequences for entries named in this document (tags omitted).
UniProt P20338: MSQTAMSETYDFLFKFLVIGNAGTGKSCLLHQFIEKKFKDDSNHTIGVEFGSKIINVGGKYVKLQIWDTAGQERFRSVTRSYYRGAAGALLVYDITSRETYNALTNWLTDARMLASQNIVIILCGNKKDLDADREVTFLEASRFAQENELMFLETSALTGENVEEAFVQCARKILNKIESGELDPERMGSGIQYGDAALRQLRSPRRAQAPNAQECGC

B1: AP1B1 (protein, UniProt Q10567 1-949)
chain: MTDSKYFTTTKKGEIFELKAELNSDKKEKKKEAVKKVIASMTVGKDVSALFPDVVNCMQTDNLELKKLVYLYLMNYAKSQPDMAIMAVNTFVKDCEDPNPLIRALAVRTMGCIRVDKITEYLCEPLRKCLKDEDPYVRKTAAVCVAKLHDINAQLVEDQGFLDTLKDLISDSNPMVVANAVAALSEIAESHPSSNLLDLNPQSINKLLTALNECTEWGQIFILDCLANYMPKDDREAQSICERVTPRLSHANSAVVLSAVKVLMKFMEMLSKDLDYYGTLLKKLAPPLVTLLSAEPELQYVALRNINLIVQKRPEILKHEMKVFFVKYNDPIYVKLEKLDIMIRLASQANIAQVLAELKEYATEVDVDFVRKAVRAIGRCAIKVEQSAERCVSTLLDLIQTKVNYVVQEAIVVIKDIFRKYPNKYESVIATLCENLDSLDEPEARAAMIWIVGEYAERIDNADELLESFLEGFHDESTQVQLQLLTAIVKLFLKKPTETQELVQQVLSLATQDSDNPDLRDRGYIYWRLLSTDPVAAKEVVLAEKPLISEETDLIEPTLLDELICYIGTLASVYHKPPSAFVEGGRGVVHKSLPPRTASSESAESPETAPTGAPPGEQPDVIPAQGDLLGDLLNLDLGPPVSGPPLATSSVQMGAVDLLGGGLDSLMGDEPEGIGGTNFVAPPTAAVPANLGAPIGSGLSDLFDLTSGVGTLSGSYVAPKAVWLPAMKAKGLEISGTFTRQVGSISMDLQLTNKALQVMTDFAIQFNRNSFGLAPAAPLQVHAPLSPNQTVEISLPLSTVGSVMKMEPLNNLQVAVKNNIDVFYFSTLYPLHILFVEDGKMDRQMFLATWKDIPNENEAQFQIRDCPLNAEAASSKLQSSNIFTVAKRNVEGQDMLYQSLKLTNGIWVLAELRIQPGNPSCTDLELSLKCRAPEVSQHVYQAYETILKN
B2: GRIPAP1 (protein, UniProt Q4V328 1-841)
chain: MAQALSEEEFQRMQAQLLELRTNNYQLSDELRKNGVELTSLRQKVAYLDKEFSKAQKALSKSKKAQEVEVLLSENEMLQAKLHSQEEDFRLQNSTLMAEFSKLCSQMEQLEQENQQLKEGAAGAGVAQAGPLVDGELLRLQAENTALQKNVAALQERYGKEAGKFSAVSEGQGDPPGGLAPTVLAPMPLAEVELKWEMEKEEKRLLWEQLQGLESSKQAETSRLQEELAKLSEKLKKKQESFCRLQTEKETLFNDSRNKIEELQQRKEADHKAQLARTQKLQQELEAANQSLAELRDQRQGERLEHAAALRALQDQVSIQSADAQEQVEGLLAENNALRTSLAALEQIQTAKTQELNMLREQTTGLAAELQQQQAEYEDLMGQKDDLNSQLQESLRANSRLLEQLQEIGQEKEQLTQELQEARKSAEKRKAMLDELAMETLQEKSQHKEELGAVRLRHEKEVLGVRARYERELRELHEDKKRQEEELRGQIREEKARTRELETLQQTVEELQAQVHSMDGAKGWFERRLKEAEESLQQQQQEQEEALKQCREQHAAELKGKEEELQDVRDQLEQAQEERDCHLKTISSLKQEVKDTVDGQRILEKKGSAALKDLKRQLHLERKRADKLQERLQDILTNSKSRSGLEELVLSEMNSPSRTQTGDSSSISSFSYREILREKESSAVPARSLSSSPQAQPPRPAELSDEEVAELFQRLAETQQEKWMLEEKVKHLEVSSASMAEDLCRKSAIIETYVMDSRIDVSVAAGHTDRSGLGSVLRDLVKPGDENLREMNKKLQNMLEEQLTKNMHLHKDMEVLSQEIVRLSKECVGPPDPDLEPGETS

Target: mycBirA*–Rab4a (UniProt P20338)
Assay: proximity labelling; BioID: A2780 cells stably expressing mycBirA*-Rab baits (mycBirA* alone as control), 1 uM biotin for 16 h; lysis in 0.4% SDS, 500 mM NaCl buffer; streptavidin microspheres; LC-MS/MS with label-free quantification, four replicates; high-confidence list by SAINTexpress (BFDR<=0.05), longlist by >2-fold enrichment; biotin-modified peptides also scored

Binder	binding
B1	binds
B2	binds

These are yes or no findings as the source states them, for the method shown. Binding seen in cells or lysates may run through a third protein. These calls come from enrichment with a bait or labelling near it, and not all partners need be listed.
